# Assay results reported in publication PMC9736344, “Discovery of a Novel Bloom’s Syndrome Protein (BLM) Inhibitor Suppressing Growth and Metastasis of Prostate Cancer” (International Journal of Molecular Sciences, 2022).
# Sequences of proteins named here, by UniProt entry; tags and fusion partners are left off. Residues count along the entry.
# UniProt P54132, 642-1290: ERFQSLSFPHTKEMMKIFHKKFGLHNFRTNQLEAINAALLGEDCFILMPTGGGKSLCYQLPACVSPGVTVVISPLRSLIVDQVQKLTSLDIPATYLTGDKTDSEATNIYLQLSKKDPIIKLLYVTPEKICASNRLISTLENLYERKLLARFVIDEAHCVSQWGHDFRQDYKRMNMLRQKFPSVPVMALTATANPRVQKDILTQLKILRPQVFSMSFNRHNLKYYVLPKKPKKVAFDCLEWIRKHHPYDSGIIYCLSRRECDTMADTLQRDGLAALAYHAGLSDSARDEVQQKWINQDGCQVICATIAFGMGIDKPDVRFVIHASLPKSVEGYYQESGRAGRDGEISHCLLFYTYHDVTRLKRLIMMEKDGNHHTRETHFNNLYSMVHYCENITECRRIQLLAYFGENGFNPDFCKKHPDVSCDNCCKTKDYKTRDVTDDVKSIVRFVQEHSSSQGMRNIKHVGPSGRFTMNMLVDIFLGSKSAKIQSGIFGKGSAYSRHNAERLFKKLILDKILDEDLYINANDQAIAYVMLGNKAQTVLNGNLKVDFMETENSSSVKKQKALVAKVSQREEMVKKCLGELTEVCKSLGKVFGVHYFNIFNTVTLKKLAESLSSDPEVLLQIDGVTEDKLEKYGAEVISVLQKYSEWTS
# For at least one entry, the source does not settle the construct or the ends of the probe. At least one verdict rests on a figure or table, not on a statement of the authors.
# Molecular target: BLM642-1290 helicase core (UniProt P54132)
# Test: fluorescence anisotropy
# Conditions: 20 mM Tris, 25 mM NaCl, 3 mM MgCl2, 0.1 mM DTT, pH 7.9, 2 nM FAM-DNA, 500 nM BLM642-1290, FP temperature not stated, recombinant protein, residues 642-1290; for binding signal (% inhibition of binding): 50 uM AO/854, 3 mM Mg2+; for binding result: no inhibitor
Sequence,"binding signal (% inhibition of binding) (label: 3'-FAM, single-stranded DNA)","binding result (3 mM Mg2+, label: 3'-FAM, single-stranded DNA)","binding result (500 nM protein, 2 nM DNA, 3 mM Mg2+, label: 3'-FAM on A2)","binding signal (20 uM AO/854 (Table S2, Methods state 10 uM), 3 mM Mg2+, label: 3'-FAM on A2, scale: % DNA binding activity relative to no compound)",binding signal (% inhibition of binding) (label: 3'-FAM on A2)
CCTAACTCTGCTCGACGGATT [ssDNA (A2 presumed)],82.8,binds,–,–,–
AATCCGTCGAGCAGTTTAGGTTAGGTTAGTTTTTT / CCTAACTCTGCTCGACGGATT [A1A2 dsDNA (forked duplex)],–,–,binds,31.5,84.5
